From PubChem BioAssay AID256 (DTP/NCI, 2004) come the findings set out here.

In the assay the test system is CD2F1 mice, L1210 leukemia ip, survival T/C. Kind of assay: NCI In Vivo Anticancer Drug Screen. Data for tumor model L1210 Leukemia (intraperitoneal) in CD2F1 (CDF1) mice. The following applies: higher T/C = longer survival. Put shortly: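 Mice carrying a transplanted tumor received test compound or vehicle alone. The value is the measurement in the treated group divided by that in the vehicle-treated control group.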

The mark [1] stands for this setting: T/C endpoint: mean survival time, dose: 200.0 mg/kg/injection, schedule: Q01DX009 (ip), vehicle: saline with Tween-80.
The mark [2] stands for this setting: T/C endpoint: mean survival time, dose: 400.0 mg/kg/injection, schedule: Q04DX003 (ip), vehicle: saline with Tween-80.
The mark [3] stands for this setting: T/C endpoint: mean survival time, dose: 400.0 mg/kg/injection, schedule: Q01DX001 (ip), vehicle: saline with Tween-80.
[4] abbreviates: T/C endpoint: mean survival time, dose: 200.0 mg/kg/injection, schedule: Q04DX003 (ip), vehicle: saline with Tween-80.
[5] abbreviates: T/C endpoint: mean survival time, dose: 100.0 mg/kg/injection, schedule: Q01DX009 (ip), vehicle: saline with Tween-80.
Setting [6] is: T/C endpoint: mean survival time, dose: 200.0 mg/kg/injection, schedule: Q01DX001 (ip), vehicle: saline with Tween-80.
[7] abbreviates: T/C endpoint: mean survival time, dose: 300.0 mg/kg/injection, schedule: Q01DX001 (ip), vehicle: saline.
The mark [8] stands for this setting: T/C endpoint: mean survival time, dose: 400.0 mg/kg/injection, schedule: Q01DX009 (ip), vehicle: saline with Tween-80.
The mark [9] stands for this setting: T/C endpoint: mean survival time, dose: 100.0 mg/kg/injection, schedule: Q01DX001 (ip), vehicle: saline.
Where [10] appears, read: T/C endpoint: mean survival time, dose: 200.0 mg/kg/injection, schedule: Q01DX001 (ip), vehicle: saline.
Setting [11] is: T/C endpoint: mean survival time, dose: 400.0 mg/kg/injection, schedule: Q01DX001 (ip), vehicle: saline.

The list shows only some results of the screen, not a fair sample: it is rich in T/C values a quarter to a half above the control, in often repeated tests (any T/C) and in doses without a T/C. Further doses and runs are listed elsewhere. T/C is the treated group as % of the vehicle group. Some doses have a count of surviving animals in place of a T/C: the source files T/C as zero there, which appears to mark a toxic dose or a test without result, not a measured value. Some survivor counts are full or nearly so, which does not show that the dose was tolerated: survival well below the control is almost never listed, so the zero probably covers shortened survival too. Survivors were counted at the toxicity check, usually on the fifth day, unless a day is given; later deaths do not show. Schedule codes are those of the source, read here as Q, the interval in days (D) or hours (H), X, the number of doses. For survival time, the PubChem record calls one and a half times the control and up active, and a quarter to a half above the control has no call in these data; cut-offs in other NCI protocols can differ. Some doses were run more than once; their values stand side by side, smallest first. Some T/C values are followed by the survivors on the day toxicity was checked, most often the fifth; where none is given, no animal had died by that day.

Consider `CC1C=NNC1=O` (configuration not stated), for which the T/C is, setting by setting: (T/C endpoint: mean survival time, dose: 100.0 mg/kg/injection, schedule: Q01DX009 (ip), vehicle: Klucel (hydroxypropylcellulose) (HPC)) 132 % of control; (T/C endpoint: mean survival time, dose: 200.0 mg/kg/injection, schedule: Q01DX009 (ip), vehicle: Klucel (hydroxypropylcellulose) (HPC)) 147 % of control; (T/C endpoint: mean survival time, dose: 256.0 mg/kg/injection, schedule: Q01DX009 (ip), vehicle: saline) 125 % of control; (T/C endpoint: mean survival time, dose: 400.0 mg/kg/injection, schedule: Q01DX009 (ip), vehicle: saline) 139 % of control; (T/C endpoint: mean survival time, dose: 512.0 mg/kg/injection, schedule: Q01DX009 (ip), vehicle: saline) 132 % of control.
In the case of `O=C1C=C(c2ccccc2)CC1`, the survivor count runs as follows: under setting [1], 3 of 6; under setting [2], 0 of 6.
For `Cc1ccc(N=Nc2sc(N)nc2-c2cccc([N+](=O)[O-])c2)cc1`, the survivor count under setting [3] is on record as 0 of 6.
Regarding `CC(O)C(=O)[O][Hg][c]1ccccc1` (configuration not stated), the survivor count (T/C endpoint: mean survival time, dose: 20.0 mg/kg/injection, schedule: Q04DX003 (ip), vehicle: saline with Tween-80) was 6 of 6 and the survivor count (T/C endpoint: mean survival time, dose: 40.0 mg/kg/injection, schedule: Q04DX003 (ip), vehicle: saline with Tween-80) is listed as 0 of 6.
`COc1cc(C=Nc2ccc(-c3nc(C)sc3C)cc2)ccc1N(CCCl)CCCl`: where the note is “T/C endpoint: mean survival time, dose: 100.0 mg/kg/injection, schedule: Q01DX001 (ip), vehicle: carboxymethylcellulose (CMC)”, the survivor count was 2 of 4.
With `O=C(O)CO.[NH2-].[NH2-].[Pt+2]`, the T/C (T/C endpoint: median survival time, dose: 10.0 mg/kg/injection, schedule: Q04DX003 (ip), vehicle: saline) was 128 and 146 % of control.
Regarding `N=c1ccn2c(n1)OC1C(OC(=O)C34CC5CC(CC(C5)C3)C4)C(COC(=O)C34CC5CC(CC(C5)C3)C4)OC12` (configuration not stated), the survivor count is, setting by setting: (T/C endpoint: mean survival time, dose: 100.0 mg/kg/injection, schedule: Q01DX005 (ip), vehicle: distilled water + Tween-80) 3 of 6; (T/C endpoint: mean survival time, dose: 200.0 mg/kg/injection, schedule: Q01DX005 (ip), vehicle: distilled water + Tween-80) 1 of 6.
With `CN(C)C1(Cc2ccccc2)c2ccccc2-c2ccc(Br)cc21` (configuration not stated), the survivor count under setting [2] was 6 of 6.
As for `CC(CNCCN)C[Si](C)(C)C` (configuration not stated), the survivor count reads like this: (T/C endpoint: mean survival time, dose: 50.0 mg/kg/injection, schedule: Q04DX003 (ip), vehicle: saline with Tween-80) 2 of 6; (T/C endpoint: mean survival time, dose: 100.0 mg/kg/injection, schedule: Q04DX003 (ip), vehicle: saline with Tween-80) 0 of 6; under setting [4], 0 of 6.
Regarding `N#CN=C(N)NC(=O)c1ccccc1`, under setting [2], the survivor count was 1 of 3.
As to `O=[N+]([O-])O.O=[N+]([O-])O.[NH-]C(c1ccccc1)C([NH-])c1ccccc1.[Pt+2]` (configuration not stated), the T/C (T/C endpoint: mean survival time, dose: 6.25 mg/kg/injection, schedule: Q04DX003 (ip), vehicle: saline with Tween-80) was 131 % of control [5 of 6 alive].
For `CN1CCCC1CCNc1nc(Nc2ccc(Cl)c(Cl)c2)nc2ccc(Cl)cc12` (configuration not stated), the survivor count runs as follows: (T/C endpoint: mean survival time, dose: 50.0 mg/kg/injection, schedule: Q01DX009 (ip), vehicle: saline with Tween-80) 2 of 6; under setting [5], 0 of 6; under setting [6], 1 of 6; under setting [3], 0 of 6.
On to `CC(CCC/C=C/CCCN(C)C(=N)N)CC(C)C1OC(=O)C(C)C(O)/C=C/C(C)C(O)C(C)C(O)C(C)C(O)CCCC(O)CC2(O)OC(CC(OC(=O)CC(=O)O)CC(O)CC(O)C(C)C(O)/C=C/C=C/C1C)CC(O)C2O` (configuration not stated), for which the survivor count reads like this: (T/C endpoint: mean survival time, dose: 8.4 mg/kg/injection, schedule: Q01DX009 (ip), vehicle: saline) 1 of 6; (T/C endpoint: mean survival time, dose: 12.6 mg/kg/injection, schedule: Q01DX009 (ip), vehicle: saline) 0 of 6.
As for `CN(C)C=NC1(c2ccccc2)CCCCC1`, the survivor count is, setting by setting: under setting [4], 2 of 6; under setting [2], 0 of 6.
As to `COc1cc(Cl)ccc1NC(=O)Nc1c(C)n(C)n(-c2ccccc2)c1=O`, under setting [1], the survivor count is 3 of 3.
Take `C[n+]1ccc(/C=C\Nc2ccccn2)cc1`: the survivor count under setting [7] is given as 2 of 6.
For `CCN(C)N=Nc1ccc(C(N)=O)cc1`, the T/C reads like this: (T/C endpoint: mean survival time, dose: 37.5 mg/kg/injection, schedule: Q01DX009 (ip), vehicle: Klucel (hydroxypropylcellulose) (HPC)) 134 % of control; (T/C endpoint: mean survival time, dose: 50.0 mg/kg/injection, schedule: Q01DX009 (oral), vehicle: saline with Tween-80) 126 % of control; (T/C endpoint: mean survival time, dose: 150.0 mg/kg/injection, schedule: Q01DX009 (ip), vehicle: Klucel (hydroxypropylcellulose) (HPC)) 146 % of control. Moreover, the survivor count is 4 of 6 (T/C endpoint: mean survival time, dose: 300.0 mg/kg/injection, schedule: Q01DX009 (ip), vehicle: Klucel (hydroxypropylcellulose) (HPC)); 4 of 6 (T/C endpoint: mean survival time, dose: 400.0 mg/kg/injection, schedule: Q01DX009 (oral), vehicle: saline with Tween-80); 0 of 6 (T/C endpoint: mean survival time, dose: 800.0 mg/kg/injection, schedule: Q01DX009 (oral), vehicle: saline with Tween-80).
Take `CCCCCCCCCCCC[n+]1c(C)cc(N)c2ccccc21`: the survivor count runs as follows: (T/C endpoint: mean survival time, dose: 2.5 mg/kg/injection, schedule: Q01DX001 (ip), vehicle: other) 2 of 6; (T/C endpoint: mean survival time, dose: 75.0 mg/kg/injection, schedule: Q01DX001 (ip), vehicle: other) 0 of 6; (T/C endpoint: mean survival time, dose: 150.0 mg/kg/injection, schedule: Q01DX001 (ip), vehicle: other) 0 of 6; (T/C endpoint: mean survival time, dose: 300.0 mg/kg/injection, schedule: Q01DX001 (ip), vehicle: other) 0 of 6.
In the case of `CCOC(=O)Nc1cc(Cl)ccc1O`, the survivor count under setting [8] is given as 1 of 6.
As to `CN(C)CCC[n+]1cc2c3ccccc3c(N)cc2c2ccccc21`, the survivor count (T/C endpoint: mean survival time, dose: 100.0 mg/kg/injection, schedule: Q04DX003 (ip), vehicle: water) is recorded as 3 of 6.
Take `COC1OC(COC(=O)c2ccc([N+](=O)[O-])cc2)C(SC#N)C1O` (configuration not stated): the survivor count runs as follows: (T/C endpoint: mean survival time, dose: 75.0 mg/kg/injection, schedule: Q01DX001 (ip), vehicle: saline) 3 of 6; under setting [7], 0 of 6.
Regarding `CC(O)C(NC(=O)c1cnc(OCc2ccccc2)nc1N)C(=O)O` (configuration not stated), the survivor count is, setting by setting: under setting [5], 1 of 6; under setting [1], 0 of 6; under setting [8], 0 of 6.
For `Cc1ccc(NCCNCC(C)(C)O)c2c(=O)c3ccccc3sc12`, the survivor count is, setting by setting: under setting [9], 6 of 6; under setting [10], 4 of 6; under setting [11], 2 of 6.
`Cc1cc2sccc2cn1`: the survivor count under setting [4] was 0 of 6 and the survivor count under setting [2] is on record as 0 of 6.
Regarding `O=C1OC2CC3CCC2C13` (configuration not stated), the survivor count runs as follows: under setting [9], 0 of 6; under setting [10], 0 of 6; under setting [11], 0 of 6.
In the case of `Cc1cn(C2CC(O)C(Cn3ccc4ccccc43)O2)c(=O)[nH]c1=O` (configuration not stated), the survivor count is on record as 5 of 5 (T/C endpoint: mean survival time, dose: 50.0 mg/kg/injection, schedule: Q01DX005 (ip), vehicle: Klucel (hydroxypropylcellulose) (HPC)); 5 of 5 (T/C endpoint: mean survival time, dose: 100.0 mg/kg/injection, schedule: Q01DX005 (ip), vehicle: Klucel (hydroxypropylcellulose) (HPC)); 5 of 5 (T/C endpoint: mean survival time, dose: 200.0 mg/kg/injection, schedule: Q01DX005 (ip), vehicle: Klucel (hydroxypropylcellulose) (HPC)).
Consider `O=c1/c(=C/c2ccccc2)c2cccc3cccc1c32`, for which the survivor count is given as 2 of 3 (T/C endpoint: mean survival time, dose: 100.0 mg/kg/injection, schedule: Q01DX001 (ip), vehicle: saline with Tween-80); 0 of 3 under setting [6]; 0 of 3 under setting [3].
Turning to `O=C(O)c1cccc(S(=O)(=O)N(CCO)CCO)c1`, under setting [8], the survivor count is 5 of 6.
As for `CN(C)CC(C)(C)C(=O)c1ccc(Cl)cc1`, the survivor count (T/C endpoint: mean survival time, dose: 400.0 mg/kg/injection, schedule: Q04DX002 (ip), vehicle: saline) is given as 0 of 3.
In the case of `CC1(Br)OC(=O)CC1Br` (configuration not stated), the survivor count (T/C endpoint: mean survival time, dose: 400.0 mg/kg/injection, schedule: Q04DX002 (ip), vehicle: saline with Tween-80) is 0 of 3.
On to `Cc1ccccc1N1C(=O)CSC1=S`, for which the survivor count under setting [8] is 3 of 6.
For the compound `COc1cccc(CCNc2ccncc2N)c1`, the survivor count is on record as 0 of 6 (T/C endpoint: mean survival time, dose: 150.0 mg/kg/injection, schedule: Q01DX001 (ip), vehicle: saline) and 0 of 6 under setting [7].
